The source of these data is PubChem BioAssay AID264 (DTP/NCI, 2004).

SMILES strings stand for the structures. The list shows only some results of the screen, not a fair sample: it is rich in T/C values a quarter to a half above the control, in often repeated tests (any T/C) and in doses without a T/C. Further doses and runs are listed elsewhere. T/C gives the treated animals as a percentage of the vehicle group. Schedule codes are those of the source, read here as Q, the interval in days (D) or hours (H), X, the number of doses. Some T/C values carry the count of animals alive at the toxicity check (mostly the fifth day); without a count, all were alive then. Some entries hold several experiments; the results are listed from low to high. Some entries give survivors of the animals treated and no T/C: the source files T/C as zero there, which appears to mark a toxic dose or a test without result, not a measured value. Counts of survivors are from the toxicity check (mostly the fifth day) where no day follows; animals may have died later.

For this experiment, the system named is nude mice, LX-1 lung xenograft intrarenal, tumor weight T/C. In words: NCI In Vivo Anticancer Drug Screen. Data for tumor model Human Lung LX-1 Xenograft (intrarenal inoculation) in NU/NU Swiss (nude) mice. The note with it: T/C endpoint: mean tumor weight change, higher T/C = larger tumour; for T/C: evaluated on day 11. The procedure:
The antitumor activity of compounds was measured in mice bearing transplantable tumors. Survival or tumor size were measured and the results are expressed as the measurement made in the treated group (T) divided by the measurement made in the vehicle treated control group (C). The tumor model used in this assay is Human Lung LX-1 Xenograft (intrarenal inoculation) in NU/NU Swiss (nude) mice

[1] abbreviates: dose: 2400.0 mg/kg/injection, schedule: Q04DX003 (sc), vehicle: Klucel (hydroxypropylcellulose) (HPC).
Where [2] appears, read: dose: 300.0 mg/kg/injection, schedule: Q04DX003 (sc), vehicle: saline with Tween-80.
[3] abbreviates: dose: 150.0 mg/kg/injection, schedule: Q04DX003 (sc), vehicle: saline with Tween-80.
Where [4] appears, read: dose: 600.0 mg/kg/injection, schedule: Q04DX003 (sc), vehicle: distilled water + Tween-80 + alcohol.
[5] abbreviates: dose: 1200.0 mg/kg/injection, schedule: Q04DX003 (sc), vehicle: saline.
[6] abbreviates: dose: 200.0 mg/kg/injection, schedule: Q04DX003 (sc), vehicle: saline with Tween-80.
Where [7] appears, read: dose: 12.0 mg/kg/injection, schedule: Q01DX010 (sc), vehicle: water.
The mark [8] stands for this setting: dose: 600.0 mg/kg/injection, schedule: Q04DX003 (sc), vehicle: saline with Tween-80.

`CN=C(NC#N)NCCSCc1nc[nH]c1C`: the survivor count under setting [1] is 2 of 6 on day 11.

On to `CN(C)N=Nc1ccc(S(N)(=O)=O)cc1`, for which the survivor count (dose: 800.0 mg/kg/injection, schedule: Q01DX010 (sc), vehicle: Klucel (hydroxypropylcellulose) (HPC)) was 0 of 6 on day 11 and 3 of 6 on day 11.

For `Nc1nc2c(C(=O)N3CCCC3)nnn2c2ccccc12`, the T/C was 132 % of control (dose: 37.5 mg/kg/injection, schedule: Q04DX003 (sc), vehicle: saline with Tween-80) and 135 % of control (dose: 75.0 mg/kg/injection, schedule: Q04DX003 (sc), vehicle: saline with Tween-80). In addition, under setting [2], the survivor count was 0 of 6 on day 11.

For `Cc1ccc2c(c1)C(=O)N(CC[P+](c1ccccc1)(c1ccccc1)c1ccccc1)C2=O`, where the note is “dose: 100.0 mg/kg/injection, schedule: Q01DX010 (sc), vehicle: Klucel (hydroxypropylcellulose) (HPC)”, the survivor count is reported as 0 of 3 on day 11.

As for `C[CH2][Pb]([CH2]C)([CH2]C)[O]C(=O)COc1ccccc1`, the survivor count reads like this: (dose: 36.0 mg/kg/injection, schedule: Q04DX003 (sc), vehicle: saline with Tween-80) 0 of 6 on day 11; (dose: 72.0 mg/kg/injection, schedule: Q04DX003 (sc), vehicle: saline with Tween-80) 0 of 6 on day 11.

With `ClCC[Se](Cl)(Cl)c1ccccc1`, the survivor count (dose: 100.0 mg/kg/injection, schedule: Q04DX003 (sc), vehicle: saline) is 2 of 6 on day 11.

Consider `O=[N+]([O-])c1ccc(Sc2ccncn2)c([N+](=O)[O-])c1`, for which, under setting [3], the T/C is 125 % of control.

As to `Cc1cc(NCCCCCCCCNc2cc(C)nc3cc(N(C)C)ccc23)c2ccc(N(C)C)cc2n1`, the survivor count is, setting by setting: (dose: 150.0 mg/kg/injection, schedule: Q01DX010 (sc), vehicle: saline with Tween-80) 0 of 6 on day 11 and 2 of 6 on day 11; (dose: 300.0 mg/kg/injection, schedule: Q01DX010 (sc), vehicle: saline with Tween-80) 0 of 6 on day 11; under setting [4], 3 of 6 on day 11.

Consider `CC(=O)OC1C(O)C(C)OC(OC2C(OC(=O)C3CCC4C(C3)OC3(CC(OC(=O)/C=C/c5ccccc5)C(C)CO3)C43CO3)OC(C)C(O)C2OC(C)=O)C1O` (stereo unspecified), for which the T/C (dose: 120.0 mg/kg/injection, schedule: Q04DX003 (sc), vehicle: distilled water + Tween-80) was 129 % of control.

With `CCC1OCC(C(Cl)CCl)O1` (stereo unspecified), under setting [1], the survivor count is 0 of 6 on day 11.

Take `O=CC(=O)c1ccc(O)cc1`: the survivor count under setting [5] is 0 of 6 on day 11.

For the compound `CC[C@@]1(O)C[C@H](OC2CC(N(C)C)C(OC3CC(O)C(OC4CCC(=O)C(C)O4)C(C)O3)C(C)O2)c2c(cc3c(c2O)C(=O)c2c(O)cccc2C3=O)[C@H]1C(=O)OC` (stereo partly specified), the T/C was 54, 61, 106, 134 % of control (dose: 0.5 mg/kg/injection, schedule: Q01DX010 (ip), vehicle: water); 30 [2 of 2 alive on day 11], 36 [2 of 2 alive on day 11], 39, 76, 80 % of control (dose: 1.0 mg/kg/injection, schedule: Q01DX010 (ip), vehicle: water); 16, 27, 30, 38 [2 of 3 alive on day 11], 88 % of control (dose: 2.0 mg/kg/injection, schedule: Q01DX010 (ip), vehicle: water). Further, the survivor count is, setting by setting: (dose: 4.0 mg/kg/injection, schedule: Q01DX010 (ip), vehicle: water) 0 of 3 on day 11 and 1 of 3 on day 11; (dose: 4.0 mg/kg/injection, schedule: Q01DX010 (sc), vehicle: water) 3 of 6 on day 11; (dose: 6.65 mg/kg/injection, schedule: Q04DX003 (ip), vehicle: water) 1 of 3 on day 11; (dose: 8.0 mg/kg/injection, schedule: Q01DX010 (ip), vehicle: water) 0 of 3 on day 11; (dose: 13.3 mg/kg/injection, schedule: Q04DX003 (ip), vehicle: water) 0 of 3 on day 11.

Consider `CONc1ccn(C2OC(CO)C(O)C2O)c(=O)n1` (stereo unspecified), for which the survivor count is reported as 3 of 5 on day 11 (dose: 600.0 mg/kg/injection, schedule: Q04DX003 (sc), vehicle: saline); 0 of 6 on day 11 under setting [5]; 2 of 6 on day 11 (dose: 2400.0 mg/kg/injection, schedule: Q04DX003 (sc), vehicle: saline).

With `O=C1NC(=O)C2C3C=CC(C12)C1C2C(=O)NC(=O)C2C31` (stereo unspecified), the T/C under setting [6] was 125 % of control.

On to `CS(=O)(=O)OCCN(CCOS(C)(=O)=O)c1ccc(C=O)cc1`, for which, for the setting “dose: 6.25 mg/kg/injection, schedule: Q01DX010 (sc), vehicle: saline”, the T/C is 143 % of control.

Take `c1ccc2c(c1)-c1ccccc1C1NC21` (stereo unspecified): under setting [2], the survivor count is 0 of 6 on day 11.

On to `O=c1n(CC2CO2)c(=O)n(CC2CO2)c(=O)n1CC1CO1` (stereo unspecified), for which the survivor count (dose: 50.0 mg/kg/injection, schedule: Q01DX010 (sc), vehicle: saline) was 0 of 3 on day 11; the survivor count (dose: 100.0 mg/kg/injection, schedule: Q01DX010 (sc), vehicle: saline) is 0 of 3 on day 11; the survivor count (dose: 100.0 mg/kg/injection, schedule: Q04DX003 (sc), vehicle: saline with Tween-80) was 2 of 6 on day 11; the survivor count under setting [6] is given as 2 of 6 on day 11.

In the case of `COc1cccc2c1C(=O)c1c(O)c3c(c(O)c1C2=O)C[C@@](O)(C(=O)CO)C[C@@H]3OC1CC(N)C(OC)C(C)O1` (stereo partly specified), where the note is “dose: 0.75 mg/kg/injection, schedule: Q01DX010 (sc), vehicle: saline”, the T/C is 132 % of control. In addition, the survivor count by setting is: (dose: 3.0 mg/kg/injection, schedule: Q01DX010 (sc), vehicle: saline) 0 of 3 on day 11; (dose: 6.0 mg/kg/injection, schedule: Q01DX010 (sc), vehicle: saline) 0 of 3 on day 11 and 1 of 3 on day 11; (dose: 12.0 mg/kg/injection, schedule: Q01DX010 (sc), vehicle: saline) 0 of 3 on day 11.

As for `Cc1c(N)nc(C(CC(N)=O)NCC(N)C(N)=O)nc1C(=O)NC(C(=O)NC(C)C(O)C(C)C(=O)NC(C(=O)NCCc1nc(-c2nc(C(=O)NCCCNCCCc3ccccn3)cs2)cs1)C(C)O)C(OC1OC(CO)C(O)C(O)C1OC1OC(CO)C(O)C(OC(N)=O)C1O)c1cnc[nH]1` (stereo unspecified), under setting [7], the T/C is 127 % of control and the survivor count is reported as 1 of 3 on day 11. Moreover, the survivor count (dose: 48.0 mg/kg/injection, schedule: Q01DX010 (sc), vehicle: water) is 0 of 3 on day 11 and 1 of 3 on day 11.

Consider `Cc1cc(=O)n2c3c(c4c(cc13)c(CN(C)C)cc(=O)n4C)OC2`, for which, under setting [8], the survivor count is 1 of 6 on day 11.

As to `Cc1cc(NCCCCCCNc2cc(C)nc3cc(N(C)C)ccc23)c2ccc(N(C)C)cc2n1`, the survivor count runs as follows: (dose: 300.0 mg/kg/injection, schedule: Q04DX003 (sc), vehicle: distilled water + Tween-80 + alcohol) 1 of 6 on day 11; under setting [4], 0 of 6 on day 11.

With `N#C[Se-].c1ccc([Te+](c2ccccc2)c2ccccc2)cc1`, where the note is “dose: 12.5 mg/kg/injection, schedule: Q04DX003 (sc), vehicle: Klucel (hydroxypropylcellulose) (HPC)”, the T/C is 126 % of control [5 of 6 alive on day 11]. Besides, the survivor count reads like this: (dose: 100.0 mg/kg/injection, schedule: Q04DX003 (sc), vehicle: Klucel (hydroxypropylcellulose) (HPC)) 0 of 6 on day 11; (dose: 200.0 mg/kg/injection, schedule: Q04DX003 (sc), vehicle: Klucel (hydroxypropylcellulose) (HPC)) 1 of 6 on day 11; (dose: 400.0 mg/kg/injection, schedule: Q04DX003 (sc), vehicle: Klucel (hydroxypropylcellulose) (HPC)) 0 of 6 on day 11.

As to `CC1(C)OCC2OC=CC(=O)C2O1` (stereo unspecified), the T/C was 133 % of control under setting [3] and 129 % of control under setting [8]. In addition, the survivor count (dose: 1200.0 mg/kg/injection, schedule: Q04DX003 (sc), vehicle: saline with Tween-80) is 0 of 6 on day 11.
